Taken from: PubChem BioAssay AID1224827 (NIAID, 2016)
The deposit covers about 3,800 reagents; shown is a random part of them. In the full data, about 2,200 (57%) are marked active. 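Active means a strong reporter change in either direction; calls are per siRNA, not per gene; qiagen siRNAs gave weaker effects.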 Unmarked entries are inactive. The numbers tell different reagents against one gene apart.

- Test: 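Confirm genes whose knock-down changes LPS-driven TNF promoter activity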 (follow-up of hits)
- Cells: RAW264.7 G9 mouse macrophage reporter clone
- Reagent: single siRNA against mouse genes, 100 nM siRNA
- Duration: siRNA for 2 days, then LPS about 16 h
- Treatment: bacterial lipopolysaccharide (LPS), 10 ng/ml, cells fixed after overnight (about 16 h) stimulation
- Read-out: 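TNF promoter reporter red fluorescence in nuclei, background subtracted, normalised per plate and to non-targeting control siRNA, as z-scores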
- Scale: TNF reporter z-score, mean and TNF reporter z-score: higher = stronger Tnf promoter reporter signal; gene median z, three same-vendor siRNAs: higher = stronger Tnf reporter signal for the gene
- Hit rule: 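Active siRNA: replicate-mean z-score of 2 or more, or -2 or less; no calls for control wells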

| gene | siRNA no. | TNF reporter z-score, mean | gene median z, three same-vendor siRNAs | TNF reporter z-score, repeat 1 | TNF reporter z-score, repeat 2 |
| --- | --- | --- | --- | --- | --- |
| Klra19 (killer cell lectin-like receptor, subfamily A, member 19) | 1 | 3.53 (active) | -1.29 | 3.76 | 3.31 |
| Klra19 (killer cell lectin-like receptor, subfamily A, member 19) | 2 | -1.4 | -1.29 | -1.43 | -1.37 |
| Klra19 (killer cell lectin-like receptor, subfamily A, member 19) | 3 | -2.55 (active) | -1.29 | -1.21 | -3.89 |
| Klra19 (killer cell lectin-like receptor, subfamily A, member 19) | 4 | 1.79 | 1.13 | 2.43 | 1.15 |
| Klra19 (killer cell lectin-like receptor, subfamily A, member 19) | 5 | 1.41 | 1.13 | 3.28 | -0.459 |
| Klra19 (killer cell lectin-like receptor, subfamily A, member 19) | 6 | 0.39 | 1.13 | 1.11 | -0.333 |
| Thap11 (THAP domain containing 11) | 1 | -4.77 (active) | -5.09 | -4.61 | -4.92 |
| Thap11 (THAP domain containing 11) | 2 | -5.18 (active) | -5.09 | -5.12 | -5.25 |
| Thap11 (THAP domain containing 11) | 3 | -5.38 (active) | -5.09 | -5.06 | -5.69 |
| Thap11 (THAP domain containing 11) | 4 | 0.72 | -0.745 | 1.57 | -0.127 |
| Thap11 (THAP domain containing 11) | 5 | -0.745 | -0.745 | -0.522 | -0.969 |
| Thap11 (THAP domain containing 11) | 6 | -2.73 (active) | -0.745 | -3.04 | -2.43 |
| Hfe (homeostatic iron regulator) | 1 | 10.8 (active) | -3.3 | 8.14 | 13.5 |
| Hfe (homeostatic iron regulator) | 2 | -3.52 (active) | -3.3 | -3.63 | -3.4 |
| Hfe (homeostatic iron regulator) | 3 | -3.81 (active) | -3.3 | -3.2 | -4.42 |
| Hfe (homeostatic iron regulator) | 4 | 4.46 (active) | 0.119 | 8.67 | 0.249 |
| Hfe (homeostatic iron regulator) | 5 | -0.138 | 0.119 | 1.19 | -1.47 |
| Hfe (homeostatic iron regulator) | 6 | -0.885 | 0.119 | -1.76 | -0.0123 |
| Mrpl35 (mitochondrial ribosomal protein L35) | 1 | -2.5 (active) | -3.35 | -1.68 | -3.32 |
| Mrpl35 (mitochondrial ribosomal protein L35) | 2 | -3.61 (active) | -3.35 | -3.83 | -3.38 |
| Mrpl35 (mitochondrial ribosomal protein L35) | 3 | -3.84 (active) | -3.35 | -3.31 | -4.37 |
| Mrpl35 (mitochondrial ribosomal protein L35) | 4 | 0.00663 | -2.34 | 1.31 | -1.29 |
| Mrpl35 (mitochondrial ribosomal protein L35) | 5 | -2.63 (active) | -2.34 | -3.54 | -1.73 |
| Mrpl35 (mitochondrial ribosomal protein L35) | 6 | -3.09 (active) | -2.34 | -3.23 | -2.95 |
| C3ar1 (complement component 3a receptor 1) | 1 | -3.08 (active) | -3.63 | -3.09 | -3.08 |
| C3ar1 (complement component 3a receptor 1) | 2 | -3.81 (active) | -3.63 | -4.13 | -3.5 |
| C3ar1 (complement component 3a receptor 1) | 3 | -4.03 (active) | -3.63 | -3.76 | -4.3 |
| C3ar1 (complement component 3a receptor 1) | 4 | 0.553 | 0.181 | 1.67 | -0.561 |
| C3ar1 (complement component 3a receptor 1) | 5 | -0.142 | 0.181 | 0.923 | -1.21 |
| C3ar1 (complement component 3a receptor 1) | 6 | -0.0772 | 0.181 | 1.24 | -1.39 |
| Or4p18 (olfactory receptor family 4 subfamily P member 18) | 1 | -1.93 | -2.18 | -2.59 | -1.28 |
| Or4p18 (olfactory receptor family 4 subfamily P member 18) | 2 | -2.4 (active) | -2.18 | -1.15 | -3.65 |
| Or4p18 (olfactory receptor family 4 subfamily P member 18) | 3 | -2.25 (active) | -2.18 | -1.77 | -2.73 |
| Or4p18 (olfactory receptor family 4 subfamily P member 18) | 4 | 4.7 (active) | -0.625 | 7.81 | 1.6 |
| Or4p18 (olfactory receptor family 4 subfamily P member 18) | 5 | -0.818 | -0.625 | -0.519 | -1.12 |
| Or4p18 (olfactory receptor family 4 subfamily P member 18) | 6 | -1.19 | -0.625 | -0.731 | -1.66 |
| Cdh1 (cadherin 1) | 1 | -3.82 (active) | -4.18 | -2.26 | -5.37 |
| Cdh1 (cadherin 1) | 2 | -3.94 (active) | -4.18 | -4.11 | -3.76 |
| Cdh1 (cadherin 1) | 3 | -5.05 (active) | -4.18 | -4.25 | -5.85 |
| Cdh1 (cadherin 1) | 4 | -1.01 | -1.38 | -0.939 | -1.08 |
| Cdh1 (cadherin 1) | 5 | -0.429 | -1.38 | 0.814 | -1.67 |
| Cdh1 (cadherin 1) | 6 | -2.71 (active) | -1.38 | -2.68 | -2.74 |

4 entries already listed, ordered by “TNF reporter z-score, repeat 2”, high to low:
| gene | siRNA no. | TNF reporter z-score, mean | gene median z, three same-vendor siRNAs | TNF reporter z-score, repeat 1 | TNF reporter z-score, repeat 2 |
| --- | --- | --- | --- | --- | --- |
| Cdh1 (cadherin 1) | 4 | -1.01 | -1.38 | -0.939 | -1.08 |
| Cdh1 (cadherin 1) | 5 | -0.429 | -1.38 | 0.814 | -1.67 |
| Cdh1 (cadherin 1) | 6 | -2.71 (active) | -1.38 | -2.68 | -2.74 |
| Cdh1 (cadherin 1) | 3 | -5.05 (active) | -4.18 | -4.25 | -5.85 |
